PubChem BioAssay AID504444 (National Center for Advancing Translational Sciences (NCATS), 2011)
The whole screen tested about 360,000 compounds, of which about 7,500 (2.1%) were called active. Inconclusive results, whose numbers are uncertain, are shown with a selection of clear calls. Calls come from the whole dose curve; as a rule, active = well fitted inhibition curve with a large enough effect; inconclusive = small, poorly fitted or top-dose-only effect, or effect the other way; inactive = flat fitted curve, though single readings scatter. Potencies beside an inconclusive call are fits to weak or partial responses and may not hold up.

assay: Nrf2 qHTS screen for inhibitors; details: A549 ARE-Fluc reporter, luciferase luminescence, 18-24 h; series mostly up to 46 µM; note: nearly all actives have a fitted effect of over 60% in size
Method in brief: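 Two sequential reads on A549 ARE_Fluc cells exposed to compound for 18-24 h: a CellTiter-Fluor fluorescence read for viability, then a luciferase luminescence read for Nrf2/ARE activity.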
Potency is the fitted concentration of half-maximal effect.

Row | SMILES | Potency
1 | CCOc1ccc(S(=O)(=O)Nc2ccc3c(c2)c(C(C)=O)c(C)n3S(=O)(=O)c2ccc(OCC)cc2)cc1 | inconclusive: 29.1 µM [falling, partial curve, poor fit]
2 | CCCCn1c(CCC)nc([N+](=O)[O-])c1Sc1ccc(Cl)cn1 | inconclusive: 29.1 µM [falling, single point]
3 | O=C(CSCc1cccc(CSCC(=O)Nc2ccc3ccccc3c2)n1)Nc1ccc2ccccc2c1 | active: 13 µM
4 | COc1ccc(-n2c(Cc3cccn3C)nnc2SCC(=O)Nc2cccc(F)c2)cc1 | inconclusive: 16.4 µM [falling, partial curve]
5 | COC(=O)C1=CN(C(C)C)C=C(C(=O)OC)C1c1cccc(OC)c1 | inactive
6 | CC[n+]1ccc(C)c2cc(S(=O)C(F)(F)F)ccc21 (stereo unspecified) | inconclusive: 32.6 µM [falling, single point]
7 | CCCCn1c(-c2ccsc2)nc2c1c(=O)[nH]c(=O)n2CCC | inconclusive: 7.31 µM [falling, partial curve]
8 | O=C(N/N=C/c1ccccc1O)c1cccc(C(F)(F)F)c1 | inconclusive: 18.4 µM [falling, single point]
9 | C=C1C(=O)O[C@H]2C[C@]3(C)C([C@@H](OC(=O)/C(C)=C/C)[C@H]12)[C@](C)(O)CC[C@H]3O (stereo partly specified) | inconclusive: 20.6 µM [falling, single point]
10 | CCN(C[C@H]1N[C@@](Cc2ccccc2)(C(=O)OC)[C@H]2C(=O)N(C)C(=O)[C@@H]12)S(=O)(=O)c1ccc(OC(F)(F)F)cc1 | inactive
11 | Nc1ccc(-c2nc3cc(N)ccc3s2)cc1 | inconclusive: 3.26 µM [activator, partial curve, poor fit]
12 | CCn1c(CC(=O)Nc2ccccc2)nnc1SCC(=O)Nc1ccccc1C(=O)OC | inactive
13 | COc1ccc(S(=O)(=O)N2CCOCC2)cc1NC(=O)c1ccccc1-c1ccc(C(F)(F)F)cc1 | inactive
14 | CCc1ccc(NC(=O)c2noc3c2CCCCC3)cc1 | inconclusive: 8.2 µM [activator, partial curve]
15 | O=S(=O)(NCCSCc1c(Cl)cccc1Cl)c1ccc2c(c1)OCCO2 | inconclusive: 20.6 µM [falling, partial curve, poor fit]
16 | CC1(C)OC(=O)C(=CNc2ccc(F)cc2)C(=O)O1 | inconclusive: 1.64 µM [activator, full curve, poor fit]
17 | c1ccc(-c2cc(-c3nc4ccccc4[nH]3)c3ccccc3n2)cc1 | inconclusive: 20.6 µM [falling, single point]
18 | Cc1ccc(C(=O)c2c(NC(=O)c3ccncc3)sc3c2CCCC3)cc1 | inconclusive: 18.4 µM [falling, partial curve, poor fit]
19 | C=CCOc1ccc(CN(C)C(=O)CNC(=O)c2ccc(-c3ccccc3)cc2)cc1 | active: 16.4 µM
20 | CC(C)(C)NC(=O)CC1C[C@H](C(=O)N2CCOCC2)[C@@]2(C)c3[nH]c4ccccc4c3CCN2C1=O (stereo partly specified) | inconclusive: 20.6 µM [activator, partial curve, poor fit]
21 | CN1CCN(C2Cc3ccc(F)cc3Sc3cc(F)c(Cl)cc32)CC1 (stereo unspecified) | inactive
22 | Cc1nc(-c2nnc(-c3ccccc3)o2)c(C(F)(F)F)o1 | inconclusive: 10.3 µM [activator, partial curve, poor fit]

Row | SMILES | Potency
23 | CCN1C(=O)[C@H]2[C@@H](c3ccc(-c4ccccc4)cc3)N3CCCC[C@@]3(C(=O)OC)[C@H]2C1=O | inconclusive: 16.4 µM [falling, single point]
24 | O=C(Nn1cnc2ccccc2c1=O)c1ccc(Br)cc1 | inconclusive: 4.61 µM [activator, full curve]
25 | O=C(Nc1cccc(NC(=O)c2ccc(-c3ccc(Br)cc3)o2)c1)c1ccco1 | inconclusive: 29.1 µM [falling, single point]
26 | O=C(Nc1cccc(S(=O)(=O)N2CCOCC2)c1)c1ccc(N2CCCC2=O)cc1 | inconclusive: 29.1 µM [falling, partial curve, poor fit]
27 | O=C(Nc1ccccc1)C1CC(=O)n2ncnc2N1 (stereo unspecified) | inconclusive: 5.17 µM [falling, full curve, poor fit]
28 | CC(C)(CNC(=O)c1ccc(S(=O)(=O)Nc2ccc(Cl)cc2)cc1)N1CCOCC1 | inconclusive: 14.6 µM [falling, partial curve]
29 | COc1cccc(NC(=O)c2cnsn2)c1 | inconclusive: 10.3 µM [activator, partial curve, poor fit]
30 | CC1CCC(NC(=O)C2COc3ccccc3O2)CC1 (stereo unspecified) | inconclusive: 25.9 µM [activator, single point]
31 | COc1ccc(CCNC(=O)C2CC2)cc1OC | inconclusive: 0.82 µM [falling, partial curve, poor fit]
32 | Cc1cc(C(=O)COC(=O)c2cccnc2Cl)c(C)n1CC1CCCO1 (stereo unspecified) | inconclusive: 4.11 µM [activator, full curve, poor fit]
33 | O=[N+]([O-])c1cccc(COc2ccccc2CN2CCCC2)c1 | inactive
34 | C=C(C)Cn1c(=O)c2c(nc3n2CCCN3CCc2ccccc2)n(C)c1=O | inconclusive: 13 µM [falling, partial curve]
35 | Cn1c(=O)c(=O)n(C)c2cc(S(=O)(=O)N3CCCC3C(=O)NCc3cccs3)ccc21 (stereo unspecified) | inactive
36 | Cc1cc(C)c(S(=O)(=O)N2CCCCC2)c(C)c1N(C)S(=O)(=O)c1ccccc1 | inconclusive: 18.4 µM [falling, single point]
37 | Cc1oc(-c2ccccc2)nc1C(=O)OCC(=O)NCc1ccc(Cl)cc1 | inactive
38 | O=c1[nH]c(C(Cl)(Cl)Cl)nc2ccc3ccccc3c12 | inconclusive: 29.1 µM [activator, single point]
39 | Cc1ccccc1NS(=O)(=O)c1ccc(C(=O)NCC(C)(C)N2CCOCC2)cc1 | active: 10.3 µM
40 | COCc1c(C(=O)Nc2nc(C)cs2)oc2ccccc12 | inconclusive: 23.1 µM [activator, partial curve, poor fit]
41 | Cn1cnc([N+](=O)[O-])c1Sc1ccccc1 | inconclusive: 0.116 µM [falling, full curve, poor fit]
42 | COc1ccc(-c2cc(-c3ccccc3)nc(SC(C)C(=O)O)c2C#N)cc1 (stereo unspecified) | inconclusive: 20.6 µM [falling, partial curve]
43 | N#Cc1c(-c2ccc(F)cc2)nc(-c2ccccc2)[nH]c1=O | inconclusive: 14.6 µM [falling, single point]
44 | COC(=O)c1ccccc1NC1=C/C(=N\S(=O)(=O)c2ccc(C(=O)O)cc2)c2ccccc2C1=O | inactive

Row | SMILES | Potency
45 | N/C(=N\OC(=O)c1cc(Br)ccc1Cl)c1ccccn1 | inconclusive: 6.51 µM [activator, partial curve]
46 | CCc1ccc(OCC(=O)NC(NC(=S)Nc2ccccc2OC)C(Cl)(Cl)Cl)cc1 (stereo unspecified) | inconclusive: 29.1 µM [falling, single point]
47 | c1ccc(Oc2cc(-n3cccn3)ncn2)cc1 | inconclusive: 3.66 µM [activator, partial curve]
48 | NC(=O)C1CCCN1Cc1ccc2c(c1)OCO2 (stereo unspecified) | inactive
49 | Cc1nn(C)cc1CN(C)C(=O)c1nn2c(c1Cl)NC(c1cccs1)CC2C(F)(F)F (stereo unspecified) | active: 16.4 µM
50 | Cc1ccc(OCC(=O)N/N=C/c2ccco2)cc1 | inactive
51 | Cc1ccc(S(=O)(=O)NCCc2ccncc2)cc1 | inconclusive: 2.59 µM [falling, partial curve, poor fit]
52 | COc1ccc(CC(=O)OCCc2cc3cc(OC)c(OC)cc3c(=O)o2)cc1 | inactive
53 | COc1ccc(C2CC(c3ccc4ccccc4c3OC(C)=O)=NN2C(C)=O)cc1 (stereo unspecified) | inconclusive: 16.4 µM [activator, partial curve]
54 | CC(C)c1ccc(OCC(=O)NC2CC(C)(C)NC(C)(C)C2)c(Br)c1 | inactive
55 | COc1cc(C(=O)NCCOc2cc(C)ccc2C(C)C)cc(OC)c1OC | inactive
56 | CC(C)(C)NC(=O)Cn1nnnc1-c1nonc1N | inconclusive: 0.0041 µM [activator, full curve, poor fit]
57 | CCOc1ccc2nc(C(=O)N3CCCC(C)C3)sc2c1 (stereo unspecified) | inconclusive: 1.64 µM [activator, full curve]
58 | C[C@@]12C(=O)Nc3ccc(F)cc3C(=O)N1[C@H]1c3cc(Cl)ccc3OC[C@@H]1[C@@H]2c1ccccc1 | inconclusive: 16.4 µM [falling, single point]
59 | CCc1ccc(OCC2c3cc(OC)c(OC)cc3CCN2C(=S)NC)cc1 (stereo unspecified) | active: 18.4 µM
60 | COC(=O)C(C)N1C(=O)S/C(=C/c2cc(C)n(-c3ccccn3)c2C)C1=O (stereo unspecified) | inconclusive: 1.16 µM [activator, full curve]
61 | CCC(=O)N1CCc2cc(S(=O)(=O)CCC(=O)N3CCN(c4cccc(C)c4)C(C)C3)ccc21 (stereo unspecified) | active: 20.6 µM
62 | Cc1cc(N2CCOCC2)nc2ccc(Cl)cc12 | inconclusive: 13 µM [activator, partial curve]
63 | Cc1nn(C)c(C)c1/C=C(/C(=O)C(C)(C)C)n1cncn1 | inactive
64 | O=C(Nc1nnc(-c2ccco2)o1)c1ccc(S(=O)(=O)N2CCCC2)cc1 | inconclusive: 20.6 µM [falling, partial curve, poor fit]
65 | Cc1cc(C)c(Cn2c3ccccc3c3cnn(CC(=O)NCCCc4ccccc4)c(=O)c32)c(C)c1 | inconclusive: 0.0052 µM [activator, full curve, poor fit]
66 | c1ccc(-[n+]2nc(Nc3cccc4ccccc34)sc2-c2c3ccccc3cc3ccccc23)cc1 | inconclusive: 29.1 µM [falling, single point]

Gathered by group: those above with a furan ring, fused or not.
Row | SMILES | Potency
25 | O=C(Nc1cccc(NC(=O)c2ccc(-c3ccc(Br)cc3)o2)c1)c1ccco1 | inconclusive: 29.1 µM [falling, single point]
40 | COCc1c(C(=O)Nc2nc(C)cs2)oc2ccccc12 | inconclusive: 23.1 µM [activator, partial curve, poor fit]
50 | Cc1ccc(OCC(=O)N/N=C/c2ccco2)cc1 | inactive
64 | O=C(Nc1nnc(-c2ccco2)o1)c1ccc(S(=O)(=O)N2CCCC2)cc1 | inconclusive: 20.6 µM [falling, partial curve, poor fit]
